{
  "source": "paper PMC2776356",
  "about": "(2009)",
  "target": "T1, Nkd1^1–286 (yeast two-hybrid bait) (human) (UniProt Q969G9)",
  "T1 sequence": "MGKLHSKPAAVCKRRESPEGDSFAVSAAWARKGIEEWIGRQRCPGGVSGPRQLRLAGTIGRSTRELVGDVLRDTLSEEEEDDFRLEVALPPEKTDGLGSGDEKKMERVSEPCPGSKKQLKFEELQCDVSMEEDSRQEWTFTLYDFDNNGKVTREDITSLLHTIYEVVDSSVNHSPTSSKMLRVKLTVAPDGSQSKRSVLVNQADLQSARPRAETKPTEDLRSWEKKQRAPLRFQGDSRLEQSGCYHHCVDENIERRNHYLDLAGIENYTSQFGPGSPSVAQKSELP",
  "experiment": "two-hybrid; Nkd1 baits in pAS2-1, Dvl preys in pAct2, yeast reporter strain Y190; growth on triple dropout (-Leu-Trp-His) with 50 mM 3-AT against double dropout (-Leu-Trp); quantitative ONPG assay",
  "note": "No constants are given. Whether binding was seen depends on the method and setting. Some binding calls cover weakened binding; strength is not graded here.",
  "data": [
    {"binder": "Dvl1 (yeast two-hybrid prey) (protein, UniProt O14640 1-695) MAETKIIYHMDEEETPYLVKLPVAPERVTLADFKNVLSNRPVHAYKFFFKSMDQDFGVVKEEIFDDNAKLPCFNGRVVSWLVLAEGAHSDAGSQGTDSHTDLPPPLERTGGIGDSRPPSFHPNVASSRDGMDNETGTESMVSHRRERARRRNREEAARTNGHPRGDRRRDVGLPPDSASTALSSELESSSFVDSDEDGSTSRLSSSTEQSTSSRLIRKHKRRRRKQRLRQADRASSFSSITDSTMSLNIVTVTLNMERHHFLGISIVGQSNDRGDGGIYIGSIMKGGAVAADGRIEPGDMLLQVNDVNFENMSNDDAVRVLREIVSQTGPISLTVAKCWDPTPRSYFTVPRADPVRPIDPAAWLSHTAALTGALPRYGTSPCSSAVTRTSSSSLTSSVPGAPQLEEAPLTVKSDMSAVVRVMQLPDSGLEIRDRMWLKITIANAVIGADVVDWLYTHVEGFKERREARKYASSLLKHGFLRHTVNKITFSEQCYYVFGDLCSNLATLNLNSGSSGTSDQDTLAPLPHPAAPWPLGQGYPYQYPGPPPCFPPAYQDPGFSYGSGSTGSQQSEGSKSSGSTRSSRRAPGREKERRAAGAGGSGSESDHTAPSGVGSSWRERPAGQLSRGSSPRSQASATAPGLPPPHPTTKAYTVVGGPPGGPPVRELAAVPPELTGSRQSFQKAMGNPCEFFVDIM", "values": [
      {"measurement": "binding", "value": "binds"}
    ]}
  ]
}
